Taken from: PubChem BioAssay AID1259254 (NCATS, 2017)
Purpose: 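Gene knock-downs that lead to re-replication, shown by excess G2 DNA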 (primary screen). System: human HCT116 colorectal cancer cells. Reagent: single siRNA against human genes. Duration: 3 days. Detection: 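Imaged Hoechst DNA stain sorts each cell into a cycle phase by DNA amount; per plate, G2 fraction set to 0% for non-targeting and 100% for GMNN siRNA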. Reading the numbers: G2 robust z-score and G2 cells, % of GMNN control: higher = more G2 cells, more excess DNA replication; raw share of cells in G2: higher = larger share of cells with G2 DNA content. Call rule: 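Active siRNAs have a G2 robust z of 5 or more median absolute deviations over the median, which in these data means about 38% or higher of GMNN control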.
Here is an unselected part of about 59,000 deposited reagents. In the full data, about 1,550 (2.6%) were called active. 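G2 share is only a proxy for re-replication; each gene was hit by three separate siRNAs, and active genes were retested.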 Raw values vary from plate to plate and are shown uncorrected. Unmarked entries are inactive. Reagents against one gene are numbered here. The record does not give: the amount of reagent.

gene | siRNA no. | G2 robust z-score | G2 cells, % of GMNN control | raw share of cells in G2 (%)
ICAM3 | 1 | 0.737 | 8.15 | 9.12
ICAM3 | 2 | 1.52 | 13.6 | 9.08
ICAM3 | 3 | -0.526 | -0.73 | 3.24
RAPGEF2 | 1 | 0.1 | 3.67 | 6.24
RAPGEF2 | 2 | 2.33 | 19.4 | 12.5
RAPGEF2 | 3 | -0.0458 | 2.65 | 4.1
SH2B3 | 1 | 0.19 | 4.3 | 7.27
SH2B3 | 2 | 0.0326 | 3.2 | 5.28
SH2B3 | 3 | -0.714 | -2.06 | 2.66
MCOLN3 | 1 | 0.699 | 7.89 | 8.16
MCOLN3 | 2 | 2.34 | 19.4 | 11.4
MCOLN3 | 3 | 4.44 | 34.2 | 17.7
SNAPC5 | 1 | -1.15 | -5.11 | 3.02
SNAPC5 | 2 | 0.872 | 9.1 | 7.74
SNAPC5 | 3 | 0.491 | 6.42 | 5.74
SOX1 | 1 | 0.608 | 7.25 | 6.36
SOX1 | 2 | -1.08 | -4.66 | 4.11
SOX1 | 3 | -0.334 | 0.621 | 4.76
EFNA3 | 1 | -0.739 | -2.23 | 4.26
EFNA3 | 2 | -0.777 | -2.5 | 3.17
EFNA3 | 3 | 1.58 | 14.1 | 9.05
PDC | 1 | 1.41 | 12.9 | 8.98
PDC | 2 | -0.644 | -1.56 | 3.83
PDC | 3 | 3.38 | 26.7 | 11.5
PI3 | 1 | 5.96 (active) | 44.9 | 19.4
PI3 | 2 | -1.17 | -5.24 | 2.73
PI3 | 3 | -0.996 | -4.04 | 2.28
SLC4A11 | 1 | -0.179 | 1.71 | 4.81
SLC4A11 | 2 | -0.0494 | 2.62 | 6.52
SLC4A11 | 3 | 0.966 | 9.76 | 8.4
